# PubChem BioAssay AID2685 (National Center for Advancing Translational Sciences (NCATS), 2010)
# The other results are listed elsewhere or left out. These are further read-outs of the screen, such as a control signal, another cell line or another target. No call is given for them. Most of these compounds were active or inconclusive in the main read-out, so they are no random draw. Words in brackets tell the shape of the fitted curve; partial curves, single points and poor fits give uncertain potencies.
# Assay: qHTS Assay for Lipid Storage Modulators in Drosophila S3 Cells;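 as to cell number change: cells counted by Cell Tracker Red CMTPX staining in the red channel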
# Settings: BODIPY lipid droplet fluorescence, 18-24 h; for cell number change: measured here: cell count max response, cells fed with added oleic acid
# Method in brief: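 Laser-scanning cytometry quantifies lipid droplet accumulation (500–530 nm total intensity; droplet/cell object ratio) in oleic acid-fed (400 uM added) Drosophila S3 cells treated with a concentration series. 20 uM Triacsin C defined 100% inhibition.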
# [1] = measured here: lipid fluorescence (Fed channel) AC50, cells fed with added oleic acid
# [2] = measured here: cell number channel AC50, cells fed with added oleic acid
Compound,cell number change [%],AC50 [1],AC50 [2]
CC(C)(C)NC(=O)CSc1nnc(-c2ccco2)n1Cc1ccco1,6.82,"6.51 µM [falling, single point]",
CN(Cc1cccc2cnccc12)C(=O)c1cc(COc2ccc(F)cc2F)on1,-39.2,"29.1 µM [falling, single point]","20.6 µM [falling, single point]"
CN(Cc1nnc(-c2ccc(F)cc2)o1)c1ccccc1,16.7,,
Cc1cc(C(=O)COC(=O)c2ccncc2)c(C)n1Cc1ccco1,-12.5,,
CCC(C)n1c(SCC(=O)NC(=O)Nc2ccc3c(c2)OCCO3)nc2ccccc2c1=O (stereo not given),,"0.231 µM [rising, full curve]","0.206 µM [rising, full curve]"
O=C(O)C1=NOC(CNC(=O)c2ccccc2Cl)C1 (stereo not given),-50.7,,"29.1 µM [falling, single point]"
O=C(CN1CCN(S(=O)(=O)c2ccc(F)c(Cl)c2)CC1)N1CCc2ccccc21,34.4,"20.6 µM [rising, partial curve]","29.1 µM [rising, single point]"
COc1ccc2cc(Br)ccc2c1CC(=O)NC(C)(C)C,34,,
COc1ccc(N2C(=O)N(Cc3ccc(C)cc3)c3ccccc3S2(=O)=O)cc1,49.3,"29.1 µM [rising, single point]","29.1 µM [rising, single point]"
Cc1nc2ccc(S(=O)(=O)Nc3cc(-c4nc5cccnc5s4)ccc3C)cc2s1,1.69,"2.59 µM [rising, partial curve]",
CSc1ccc(S(=O)(=O)Nc2ccc3c(c2)NC(=O)CC3)cc1,-15.8,"23.1 µM [rising, partial curve]",
CCCc1cc(=O)n2[nH]c(NCc3c(Cl)cccc3Cl)nc2n1,28.4,"6.51 µM [rising, single point]",
COc1ccc(CC(=O)NNS(=O)(=O)c2ccc(F)cc2)cc1,4.76,"6.51 µM [rising, single point]",
Cc1cc(C)cc(C(=O)NCC(=O)OCc2nc(N)nc(Nc3ccccc3C)n2)c1,0.777,,
Cc1cc(C)n2nc(/C(C#N)=C/c3ccccc3)c(C#N)c2n1,-17.9,"0.116 µM [rising, full curve, poor fit]",
CNc1snc(C)c1C(=O)OCC(=O)N(C)Cc1ccccc1,,"18.4 µM [falling, partial curve, poor fit]",
O=C(COC(=O)[C@@H]1CC(O)CN1S(=O)(=O)c1ccc(Cl)cc1)NC(=O)NCc1ccccc1 (stereo not given in full),6.34,"29.1 µM [rising, single point]",
COc1cc(/C=C/[N+](=O)[O-])ccc1OCc1cccc(C(=O)O)c1,-5.7,"29.1 µM [falling, single point]",
COc1ccc(Nc2ncc3c(n2)CC(c2ccc(OC)cc2)CC3=O)cc1 (stereo not given),139,"2.59 µM [rising, full curve]","3.66 µM [rising, full curve]"
N#C/C(=C(/O)CCl)c1nc2c(s1)CCc1ccccc1-2,33.8,,
Cn1c(N)c(C#N)c2c(c1=S)COC(C)(C)C2,12.9,"4.61 µM [rising, single point]",

# 3 of these compounds, set out differently.
Compound | cell number change [%] | AC50 [1] | AC50 [2]
CC(C)(C)NC(=O)CSc1nnc(-c2ccco2)n1Cc1ccco1 | 6.82 | 6.51 µM [falling, single point] | 
CCCc1cc(=O)n2[nH]c(NCc3c(Cl)cccc3Cl)nc2n1 | 28.4 | 6.51 µM [rising, single point] | 
Cc1cc(C)cc(C(=O)NCC(=O)OCc2nc(N)nc(Nc3ccccc3C)n2)c1 | 0.777 |  | 

# 3 entries out of the list, arranged by count of non-hydrogen atoms, smallest number first.
Compound,cell number change [%],AC50 [1],AC50 [2]
Cc1cc(C)n2nc(/C(C#N)=C/c3ccccc3)c(C#N)c2n1,-17.9,"0.116 µM [rising, full curve, poor fit]",
Cc1nc2ccc(S(=O)(=O)Nc3cc(-c4nc5cccnc5s4)ccc3C)cc2s1,1.69,"2.59 µM [rising, partial curve]",
O=C(COC(=O)[C@@H]1CC(O)CN1S(=O)(=O)c1ccc(Cl)cc1)NC(=O)NCc1ccccc1 (stereo not given in full),6.34,"29.1 µM [rising, single point]",

# (cont.)

Compound,cell number change [%],AC50 [1],AC50 [2]
CCC(C)(C(=O)Nc1ccc(OC)cc1)N(C)C(=O)Cn1nnnc1N (stereo not given),-11.4,"6.51 µM [rising, partial curve]",
CCOC(=O)CS(=O)(=O)c1nc(-c2ccc(F)cc2)cc(C(F)(F)F)n1,-69.2,"29.1 µM [falling, single point]","5.17 µM [falling, partial curve, poor fit]"
Cc1sc2nc(CSc3n[nH]c(N)n3)[nH]c(=O)c2c1C,13.4,,
COc1ccc(CN2CCN(C(=O)CCC(=O)Nc3nnc(C4CCCCC4)s3)CC2)cc1F,-4.42,"29.1 µM [falling, single point]",
O=C(Nc1nnc(C2CC2)s1)c1ccc(Cl)nc1,37.9,,"25.9 µM [rising, single point]"
CCOC(=O)c1ccc(NC(=O)CSC2=NN3CCCC(=O)N=C3S2)cc1,33.1,"23.1 µM [rising, partial curve]","0.058 µM [rising, full curve, poor fit]"
Cc1nn(Cc2ccccc2)c(Cl)c1C(=O)NCc1ccco1,24.8,"6.51 µM [rising, single point]","6.51 µM [rising, single point]"
COc1ccc(-c2nc(C#N)c(N3CCOCC3)o2)cc1OC,-15.9,"6.51 µM [rising, single point]",
C=CCCCCCCCCC(=O)NN,-78,"0.651 µM [falling, single point]","20.6 µM [falling, partial curve]"
COCCNc1nc(SC)nc2sc3c(c12)CCN(C)C3,-26.1,,
O=C(Nc1cc(C(=O)Nc2ccccc2C(=O)O)cc(C(=O)Nc2ccccc2C(=O)O)c1)c1ccccc1,15.1,"29.1 µM [rising, single point]",
C/C(=N\O)c1sc(-c2ccccc2)nc1C,7.4,"0.731 µM [rising, partial curve, poor fit]",
CCNC(=O)c1c(NC(=O)c2cc(-c3cc(C)ccc3O)n[nH]2)sc2c1CCCC2,19.6,"0.517 µM [rising, full curve, poor fit]",
Cc1ccc(CNC(=O)c2cccc(S(C)(=O)=O)c2)cc1,-10.8,,
Cc1c(CC(=O)Nc2ccc(Cl)cc2)sc2ccc(Cl)cc12,-27.6,"29.1 µM [falling, single point]",
CCOc1ccc(C(=O)NCCC(=O)N2CCC3(CC2)NCCc2[nH]cnc23)cc1,,,"0.259 µM [rising, full curve, poor fit]"
CCOC(=O)c1ccc(Oc2nc(SC)nc(N(C)C)n2)cc1,1.56,"20.6 µM [rising, single point]",
Cc1ccc(CN2CCN(Cc3nc4ccccc4nc3C)CC2CCO)cc1 (stereo not given),28.1,"7.31 µM [rising, partial curve]",
O=C(CS)Nc1ccc2ccccc2c1,-33,"3.66 µM [falling, full curve, poor fit]","23.1 µM [falling, single point]"
CCOC(=O)[C@H]1[C@H]2COc3ccccc3[C@@H]2N2C(=O)CNC(=O)[C@@]12C,6.88,"0.651 µM [falling, single point]","0.651 µM [falling, single point]"
C=CCN1C(=O)c2ccc(C(=O)N3CCN(S(=O)(=O)c4cccc(F)c4)CC3)cc2C1=O,27,,

Compound,cell number change [%],AC50 [1],AC50 [2]
Cc1ccc(C(C(=O)NC2CCCCC2)N(Cc2cccnc2)C(=O)C2COc3ccccc3O2)o1 (stereo not given),-10.3,"1.3 µM [rising, partial curve]",
CC(=O)c1sc(NC(=O)COc2ccc(C)c(C)c2)nc1C,33.2,,"10.3 µM [rising, partial curve]"
Cc1[nH]nc2c1C(c1cccc(O)c1)C1=C(CC(C)(C)CC1=O)N2 (stereo not given),-1.76,"32.6 µM [rising, single point]",
CN(C(=O)Cn1nc(Cl)ccc1=O)C1CCCN(Cc2ccccc2F)C1 (stereo not given),-23,"1.84 µM [falling, partial curve, poor fit]",
O=C(/C=C/c1ccc(-c2cccc([N+](=O)[O-])c2)o1)N1CCOCC1,27.5,"6.51 µM [rising, single point]","6.51 µM [rising, single point]"
CCOC(=O)Cn1c(=NC(=O)CSC(C)=O)sc2cc(F)ccc21,,"16.4 µM [rising, single point]",
Cc1ccc(NC(=O)c2cnn(-c3ccccc3)c2C)cc1,-16.4,,
CCOc1ccc2c3c(c(=O)oc2c1OCC)CCCC3,-16.9,,
Cc1nc(-c2ccc(S(=O)(=O)N3CCN(C(c4ccccc4)c4ccccc4)CC3)s2)cs1,,,"6.51 µM [rising, single point]"
COc1cc2sc(C)nc2cc1C,22.4,,"0.00461 µM [rising, full curve, poor fit]"
CCOCCCn1c(SCC(=O)Nc2ccccc2OC)nc2ccccc2c1=O,-31.5,"6.51 µM [rising, single point]","16.4 µM [falling, single point]"
Cc1cc(C(=O)NNC(=O)c2ccccc2O)c(C)o1,18.1,,
COc1cccc2sc(=NC(=O)CCS(=O)(=O)c3ccc(C)cc3)n(C)c12,,"2.59 µM [rising, full curve, poor fit]",
O=C(O)c1cccc(Oc2ncnc3sc4c(c23)CCCC4)c1,40.2,,"14.6 µM [rising, single point]"
C#CCOCCOCCOCCNc1nc(N2CCN(C(=O)Cn3cc(CCCN=C(N)N)nn3)CC2)nc(N2CCN(C(=O)[C@H](CCCCN)n3cc(CC(C)O)nn3)CC2)n1 (stereo not given in full),28.8,,
CCN(CC)CCn1c(SCC(=O)Nc2ccc3c(c2)CCC3)nc2ccccc2c1=O,-15.8,"0.82 µM [falling, full curve, poor fit]",
O=C(/C=C/c1cccs1)NC(=S)Nc1ccccc1,-8.27,,
CCc1ccc2oc(C(=O)Nc3nonc3C)c(C)c2c1,-5.28,,
COc1ccnc(NCc2ccc(Cl)cc2)c1C#N,,"1.16 µM [rising, full curve, poor fit]",
COCC(=O)N(Cc1cc2ccc(C)cc2[nH]c1=O)c1ccccc1C,-10.8,"1.3 µM [rising, full curve, poor fit]",
